# Results: PubChem BioAssay AID590 (National Center for Advancing Translational Sciences (NCATS), 2007)
# “And” between values parts separate entries of the source, which are not always exact repeats. Equal entries are not always repeated. The campaign covered roughly 59,000 compounds. About 6,500 (11%) were called active. Inconclusive results, whose numbers are uncertain, are shown with a selection of clear calls. Rule as the data show it: active = max dye-equivalent concentration above about 10 nM; inconclusive = mostly about 1.1 nM to 9.6 nM; inactive = weaker than that.
# Experiment: qHTS Assay for Spectroscopic Profiling in A350 Spectral Region
# Settings: Compound autofluorescence, 340/450 nm, Alexa 350 dye-equivalents; stronger effect = higher value
row,SMILES,max dye-equivalent concentration
1,COc1ccc(N2CSC3=C(C#N)C(c4cccs4)CC(=O)N3C2)cc1 (stereo not drawn),inactive
2,O=C(O)c1cc2cc(Cl)ccc2oc1=O,inconclusive: 3.1e-09 M
3,COc1ccc(-n2cnnc2SCc2cnc(-c3ccccc3)s2)cc1,inconclusive: 1.3e-09 M
4,Cn1nc(C(=O)OCCN2C(=O)c3ccccc3C2=O)c2ccccc2c1=O,inconclusive: 1.1e-09 M
5,COc1ccc(C2CC(C(F)(F)F)n3nc(C(=O)O)cc3N2)cc1OC (stereo not drawn),inconclusive: 7.2e-09 M
6,CCCCn1c(=O)[nH]c(=O)c2c1nc(COc1ccc(C#N)cc1)n2CCC,inactive
7,COCCCNC(=O)c1cc2c(=O)n3cccc(C)c3nc2n(C(C)C)c1=N,active: 1.3e-05 M
8,CC1(C)CC(c2csc(N)n2)CCO1 (stereo not drawn),inconclusive: 1.5e-09 M
9,COc1c(C(=O)N2CCCC2)ccc2ccccc12,inactive
10,C=CCn1c(SCC(=O)Nc2cc(C)ccc2C)nnc1-c1cnccn1,inconclusive: 1.1e-09 M
11,CCCc1nn(CCc2ccccn2)c(N)c1CC,inconclusive: 2.6e-09 M
12,COCC(=O)N1CCC2(CCN(Cc3ccccc3OC)CC2)CC1,inactive
13,O=C(COc1cccc2cccnc12)Nc1nccs1,inactive
14,O=C(CCC(=O)N1CCc2ccccc21)Nc1ccccc1,inconclusive: 1.9e-09 M
15,COc1ccc(N(C(=O)c2cccc(OC)c2OC)C2C=CS(=O)(=O)C2)cc1 (stereo not drawn),inactive
16,Cc1cccc(C(=O)O)c1C[C@H]1NCC[C@H]2c3ccccc3N[C@@H]12,active: 1.7e-06 M
17,COc1ccc(-c2nc3c(Br)c(N)c(Br)cc3o2)cc1,active: 6e-07 M
18,Cn1c(=O)c2[nH]c([C@@H]3CC(=O)C[C@H](c4nc5c([nH]4)c(=O)n(C)c(=O)n5C)N3)nc2n(C)c1=O,inconclusive: 7.4e-09 M
19,CCN(CC)CCN1C(=O)c2oc3ccccc3c(=O)c2C1c1ccccc1 (stereo not drawn),inconclusive: 4.9e-09 M
20,CCOC(=O)N1CCC(NC(=O)c2cc(C(=O)Nc3ccc(OC)c(OC)c3)ccc2CO)CC1,active: 1.2e-08 M
21,Cc1cc(NC(=O)CN2CCCC2c2nc3ccccc3s2)no1 (stereo not drawn),inactive
22,Brc1cccc(-c2nnc3n2CCC3)c1,inconclusive: 2.5e-09 M
23,O=C1c2ccccc2C(=O)c2c(NC3CCCCC3)ccc(Nc3ccc(S(=O)(=O)O)cc3)c21,inactive
24,COC(=O)[C@@H](N)Cc1ccc(O)c(O)c1,inactive

row,SMILES,max dye-equivalent concentration
1,C=CCNc1nc2ccccc2nc1NS(=O)(=O)c1cccs1,active: 5.2e-08 M
2,Cc1ccc(N2CCN(CCc3nc4cc(NC(=O)c5ccco5)ccc4n3C)CC2)cc1,inconclusive: 1.3e-09 M
3,CC(=O)C1=C(O)C(=O)N(c2cccc(C(=O)O)c2)C1c1ccc(F)cc1 (stereo not drawn),inconclusive: 3.6e-09 M
4,COc1ccc2[nH]c(=O)c(CN(CCCN(C)C)C(=O)Nc3ccccc3)cc2c1,active: 2.7e-07 M
5,CS(=O)(=O)N1CCC(C(=O)N2CCC(Cc3ccccc3)CC2)CC1,inconclusive: 3.8e-09 M
6,COc1ccc(CCN(C(=O)c2ccc(F)cc2)C2=CC3CCC(C2)N3C)cc1OC (stereo not drawn),inactive
7,COc1ccc(-c2oc3ncnc(NCCCN4CCOCC4)c3c2-c2ccc(OC)cc2)cc1,active: 5.1e-08 M
8,Nc1c(S(=O)(=O)c2cccs2)c2nc3ccccc3nc2n1CC1CCCO1 (stereo not drawn),active: 4e-06 M
9,NC(=O)NC(=O)Nc1ccccc1Cl,inactive
10,O=C(N[C@@H](CO)[C@@H](O)c1ccc([N+](=O)[O-])cc1)C(Cl)Cl,active: 2e-08 M
11,COc1ccc(-n2c(SCC(=O)N3CCCCC3C)nnc2-c2cccnc2)cc1 (stereo not drawn),inactive
12,CCC(=O)Nc1ccc2c(c1)nc(CCN1CCN(C)CC1)n2C,inactive
13,COc1ccccc1N1CCN(C(=O)Cn2nc(C(F)(F)F)c3c2CCC3)CC1,inactive
14,CCOC(=O)CCc1c(C)c2ccc(OCC(=O)OC(C)C)cc2oc1=O,inconclusive: 5.9e-09 M
15,COc1ccc(C)cc1S(=O)(=O)NC1CCCC1,inconclusive: 2.9e-09 M
16,CC(C)C(=O)Nc1cc(=O)[nH]c2ncnn12,inactive
17,Cn1c(C(=O)N2CCCc3ccccc32)cc2c(=O)n3ccccc3nc21,active: 1e-07 M
18,CCn1nc(NC(=O)c2ccncc2)c2cc3ccccc3nc21,active: 1.2e-08 M
19,Oc1ccc([C@@H]2CNCCc3c2cc(O)c(O)c3Cl)cc1,active: 2.5e-07 M
20,O=C(NCc1ccccc1)NC1(C(=O)N2CCOCC2)CCCCC1,inconclusive: 1.9e-09 M
21,O=C1c2ccccc2-c2onc3ccc(NCCCn4ccnc4)c1c23,inactive
22,Cc1coc2c(O)cc3c(c12)OC1(N2CCCCC2)C(=O)NCCCC31 (stereo not drawn),inconclusive: 5.1e-09 M
23,O=C(Cc1ccc(S(=O)(=O)N2CCCC2)s1)Nc1nc2c(s1)CCCC2,inactive
24,CCc1nc(SCCO)c2oc3ccccc3c2n1,inconclusive: 2.3e-09 M

row,SMILES,max dye-equivalent concentration
1,CCC(=O)Nc1ccc(N2CCN(C(=O)c3ccccc3C)CC2)cc1,active: 7.1e-07 M
2,N#CCCn1c(=O)cnc2cnc(N3CCOCC3)nc21,inconclusive: 2.4e-09 M
3,N#Cc1ccccc1-c1ccc2ncnc(NCc3cccnc3)c2c1,inactive
4,O=c1[nH]c2ccccc2c2nc3ccccn3c12,inactive
5,CCn1cc(C(=O)Nc2nncs2)c(=O)c2cc(F)c(N3CCN(C(=O)c4ccco4)CC3)cc21,inconclusive: 2.5e-09 M
6,COc1ccc2cc(C3(C)NC(=O)NC3=O)ccc2c1 (stereo not drawn),inconclusive: 1.1e-09 M
7,Cc1ccc(-c2cc(-c3ccc4c(c3)OCO4)c(C#N)c(N)n2)o1,active: 3.2e-08 M
8,Cc1cccc(Nc2nn3c(=O)c4ccccc4nc3s2)c1,inconclusive: 2.5e-09 M
9,CC1CN(c2cc3nccnc3cc2F)CC(C)O1 (stereo not drawn),inconclusive: 1.3e-09 M
10,CCC(=O)N1CCN(c2ccccc2NC(=O)COc2cc(C)ccc2C(C)C)CC1,inactive
11,CCNc1ncc2nc(-c3ccc(F)cc3)c(=O)n(CCc3ccccc3)c2n1,active: 4.5e-08 M
12,O=C(c1ccc(CNS(=O)(=O)c2cccc(C(F)(F)F)c2)cc1)N1CCOCC1,inconclusive: 1e-08 M
13,Cc1cc2c(c(=O)o1)C1(C(=O)N(CC(=O)O)c3ccccc31)C(C#N)=C(N)O2 (stereo not drawn),inconclusive: 2.6e-09 M
14,CCOC(=O)N1CCN(S(=O)(=O)c2ccc(C)c(C)c2C)CC1,inconclusive: 1.4e-09 M
15,Cc1noc(C)c1-c1nccc(N2CCN(C)CC2)n1,inactive
16,COCCn1c(=O)c(CCc2ccccc2)nc2cnc(OCc3ccccc3)nc21,inactive
17,O=C(COc1cc(Cl)c(Cl)cc1Cl)Nc1ccncc1,inconclusive: 8.5e-09 M
18,COc1ccc(Cl)cc1-n1c(N)c(C(N)=O)sc1=S,inconclusive: 1.5e-09 M
20,O=c1[nH]c2cc(Cl)c(Cl)cc2[nH]c1=O,inconclusive: 5.6e-09 M
21,CCOc1cc2[nH]c(=O)n(CCCC(=O)NCc3ccco3)c(=O)c2cc1OCC,inconclusive: 4.8e-09 M
22,Cc1cc(C)n(C(=O)COc2c(C)cccc2C)n1,active: 4.7e-07 M
23,Cc1nc2c(C(=O)NCc3ccc(F)cc3)c[nH]n2c(=O)c1Cl,inconclusive: 1.5e-09 M
24,CC(NCCO)C(=O)C12CC3CC(CC(C3)C1)C2 (stereo not drawn),active: 4.3e-08 M

row,SMILES,max dye-equivalent concentration
1,CCc1cc2c(=O)c(-c3ccon3)c(N)oc2cc1OC,inactive
2,N=c1c(C(=O)NCc2ccc(F)cc2)cc2c(=O)n3ccccc3nc2n1CCCN1CCOCC1,active: 3.5e-06 M
3,Cc1noc(C)c1-c1cncnc1NC1CC1,inconclusive: 9.3e-09 M
4,CCCCOc1ccc(C2C3CN(C(=O)OCC)CC=C3C(C#N)=C(N)C2(C#N)C#N)cc1OC (stereo not drawn),inconclusive: 5.8e-09 M
5,CCC(C)n1c(=O)c(C(=O)Nc2ccccc2S(N)(=O)=O)c(O)c2ccccc21 (stereo not drawn),inconclusive: 2.2e-09 M
6,CCOC(=O)C1=C(C(C)=O)C(c2cccnc2)C(C#N)=C(N)O1 (stereo not drawn),active: 2e-08 M
7,OCCCNCc1cccc2ccccc12,inconclusive: 2.7e-09 M
8,CCCOc1ccc(-c2nc(N)n[nH]2)cc1,inconclusive: 2.1e-09 M
9,O=C1C2C3C=CC(C3)C2C(=O)N1c1ncn[nH]1 (stereo not drawn),inconclusive: 1.6e-09 M
10,O=C(Nc1ccccc1)N1C(=O)C2(OCCO2)c2ccccc21,inconclusive: 3.5e-09 M
11,CCc1ccc2nc(SCC(=O)N(CC)CC)c(C#N)cc2c1,active: 3.4e-08 M
12,Cc1nc2oc3c(NCc4ccccc4)ncnc3c2c2c1COC(C)(C)C2,inconclusive: 1.4e-09 M
13,CC1Cc2ccccc2N1C(=O)CSc1nnc(-c2ccc(S(=O)(=O)N3CCCC3)cc2)o1 (stereo not drawn),inactive
14,Cc1cc2c(c(=O)n1Cc1ccccn1)C(C(C)C)C(C#N)=C(N)O2 (stereo not drawn),inconclusive: 5.7e-09 M
15,COc1ccc2oc(=O)c(-c3nc(C)cs3)cc2c1,active: 1.1e-07 M
16,O=c1c2cc(N3CCOCC3)ccc2[nH]c(=S)n1Cc1ccco1,active: 1.1e-08 M
17,O=C(Nc1ccc2nsnc2c1)c1cccs1,inconclusive: 6.8e-09 M
18,Fc1cccc(-c2cc3nc4c(c(N5CCOCC5)n3n2)CCCC4)c1,active: 3.5e-08 M
19,COCC(C)n1c(C)cc(C(=O)CN2C(=O)NC3(CCCCC3C)C2=O)c1C (stereo not drawn),inactive
20,COCCn1c(SCc2ccc(C(=O)OC)o2)nc2ccccc2c1=O,inconclusive: 1e-08 M
21,O=C(Nc1ccc2c(c1)OCO2)C1CCCCN1S(=O)(=O)c1ccc(F)cc1 (stereo not drawn),inactive

# An excerpt of these results, as tab-separated lines:
row	SMILES	max dye-equivalent concentration
6	CCOC(=O)C1=C(C(C)=O)C(c2cccnc2)C(C#N)=C(N)O1 (stereo not drawn)	active: 2e-08 M
7	OCCCNCc1cccc2ccccc12	inconclusive: 2.7e-09 M
8	CCCOc1ccc(-c2nc(N)n[nH]2)cc1	inconclusive: 2.1e-09 M
9	O=C1C2C3C=CC(C3)C2C(=O)N1c1ncn[nH]1 (stereo not drawn)	inconclusive: 1.6e-09 M
10	O=C(Nc1ccccc1)N1C(=O)C2(OCCO2)c2ccccc21	inconclusive: 3.5e-09 M
